Results are given in words; binding and its absence hold for the method and conditions named. In cells and extracts the contact can be indirect. A yes stands for co-enrichment or nearness to the bait. Other partners may have been found.

T1: E3 ubiquitin-protein ligase Midline-1 (UniProt O15344)
T1 sequence: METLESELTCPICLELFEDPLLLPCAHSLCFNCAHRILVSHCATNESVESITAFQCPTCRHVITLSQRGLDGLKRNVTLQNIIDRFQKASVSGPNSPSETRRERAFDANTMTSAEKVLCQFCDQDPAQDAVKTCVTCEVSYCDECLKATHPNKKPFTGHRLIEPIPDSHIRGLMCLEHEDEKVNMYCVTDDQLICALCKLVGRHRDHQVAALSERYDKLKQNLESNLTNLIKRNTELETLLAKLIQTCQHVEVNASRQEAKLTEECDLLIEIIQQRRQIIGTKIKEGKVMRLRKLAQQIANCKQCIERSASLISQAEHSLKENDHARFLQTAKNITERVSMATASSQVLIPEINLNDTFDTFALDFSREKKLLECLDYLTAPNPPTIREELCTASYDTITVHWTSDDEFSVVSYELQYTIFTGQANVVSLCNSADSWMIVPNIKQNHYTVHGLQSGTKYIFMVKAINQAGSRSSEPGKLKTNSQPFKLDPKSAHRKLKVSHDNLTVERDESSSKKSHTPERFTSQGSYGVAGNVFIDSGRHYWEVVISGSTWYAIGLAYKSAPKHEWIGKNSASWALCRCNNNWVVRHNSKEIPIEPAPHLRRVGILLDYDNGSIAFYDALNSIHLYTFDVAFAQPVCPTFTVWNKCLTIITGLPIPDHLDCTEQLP

B1: U4/U6.U5 tri-snRNP-associated protein 1 (protein, UniProt O43290 1-800)
chain: MGSSKKHRGEKEAAGTTAAAGTGGATEQPPRHREHKKHKHRSGGSGGSGGERRKRSRERGGERGSGRRGAEAEARSSTHGRERSQAEPSERRVKREKRDDGYEAAASSKTSSGDASSLSIEETNKLRAKLGLKPLEVNAIKKEAGTKEEPVTADVINPMALRQREELREKLAAAKEKRLLNQKLGKIKTLGEDDPWLDDTAAWIERSRQLQKEKDLAEKRAKLLEEMDQEFGVSTLVEEEFGQRRQDLYSARDLQGLTVEHAIDSFREGETMILTLKDKGVLQEEEDVLVNVNLVDKERAEKNVELRKKKPDYLPYAEDESVDDLAQQKPRSILSKYDEELEGERPHSFRLEQGGTADGLRERELEEIRAKLRLQAQSLSTVGPRLASEYLTPEEMVTFKKTKRRVKKIRKKEKEVVVRADDLLPLGDQTQDGDFGSRLRGRGRRRVSEVEEEKEPVPQPLPSDDTRVENMDISDEEEGGAPPPGSPQVLEEDEAELELQKQLEKGRRLRQLQQLQQLRDSGEKVVEIVKKLESRQRGWEEDEDPERKGAIVFNATSEFCRTLGEIPTYGLAGNREEQEELMDFERDEERSANGGSESDGEENIGWSTVNLDEEKQQQDFSASSTTILDEEPIVNRGLAAALLLCQNKGLLETTVQKVARVKAPNKSLPSAVYCIEDKMAIDDKYSRREEYRGFTQDFKEKDGYKPDVKIEYVDETGRKLTPKEAFRQLSHRFHGKGSGKMKTERRMKKLDEEALLKKMSSSDTPLGTVALLQEKQKAQKTPYIVLSGSGKSMNANTITK
B2: U5 small nuclear ribonucleoprotein 40 kDa protein (protein, UniProt Q96DI7 1-357)
chain: MIEQQKRKGPELPLVPVKRQRHELLLGAGSGPGAGQQQATPGALLQAGPPRCSSLQAPIMLLSGHEGEVYCCKFHPNGSTLASAGFDRLILLWNVYGDCDNYATLKGHSGAVMELHYNTDGSMLFSASTDKTVAVWDSETGERVKRLKGHTSFVNSCYPARRGPQLVCTGSDDGTVKLWDIRKKAAIQTFQNTYQVLAVTFNDTSDQIISGGIDNDIKVWDLRQNKLTYTMRGHADSVTGLSLSSEGSYLLSNAMDNTVRVWDVRPFAPKERCVKIFQGNVHNFEKNLLRCSWSPDGSKIAAGSADRFVYVWDTTSRRILYKLPGHAGSINEVAFHPDEPIIISASSDKRLYMGEIQ
B3: Very-long-chain enoyl-CoA reductase (protein, UniProt Q9NZ01 1-308)
chain: MKHYEVEILDAKTREKLCFLDKVEPHATIAEIKNLFTKTHPQWYPARQSLRLDPKGKSLKDEDVLQKLPVGTTATLYFRDLGAQISWVTVFLTEYAGPLFIYLLFYFRVPFIYGHKYDFTSSRHTVVHLACICHSFHYIKRLLETLFVHRFSHGTMPLRNIFKNCTYYWGFAAWMAYYINHPLYTPPTYGAQQVKLALAIFVICQLGNFSIHMALRDLRPAGSKTRKIPYPTKNPFTWLFLLVSCPNYTYEVGSWIGFAIMTQCLPVALFSLVGFTQMTIWAKGKHRSYLKEFRDYPPLRMPIIPFLL
B4: Serine/arginine-rich splicing factor 3 (protein, UniProt P84103 1-164)
chain: MHRDSCPLDCKVYVGNLGNNGNKTELERAFGYYGPLRSVWVARNPPGFAFVEFEDPRDAADAVRELDGRTLCGCRVRVELSNGEKRSRNRGPPPSWGRRPRDDYRRRSPPPRRRSPRRRSFSRSRSRSLSRDRRRERSLSRERNHKPSRSFSRSRSRSRSNERK
B5: Splicing factor, arginine/serine-rich 15 (protein, UniProt O95104 1-1147)
chain: MDAVNAFNQELFSLMDMKPPISRAKMILITKAAIKAIKLYKHVVQIVEKFIKKCKPEYKVPGLYVIDSIVRQSRHQFGTDKDVFGPRFSKNITATFQYLYLCPSEDKSKIVRVLNLWQKNGVFKIEIIQPLLDMAAGTSNAAPVAENVTNNEGSPPPPVKVSSEPPTQATPNSVPAVPQLPSSDAFAAVAQLFQTTQGQQLQQILQTFQQPPKPQSPALDNAVMAQVQAITAQLKTTPTQPSEQKAAFPPPEQKTAFDKKLLDRFDYDDEPEAVEESKKEDTTAVTTTAPAAAVPPAPTATVPAAAAPAAASPPPPQAPFGFPGDGMQQPAYTQHQNMDQFQPRMMGIQQDPMHHQVPLPPNGQMPGFGLLPTPPFPPMAQPVIPPTPPVQQPFQASFQAQNEPLTQKPHQQEMEVEQPCIQEVKRHMSDNRKSRSRSASRSPKRRRSRSGSRSRRSRHRRSRSRSRDRRRHSPRSRSQERRDREKERERRQKGLPQVKPETASVCSTTLWVGQLDKRTTQQDVASLLEEFGPIESINMIPPRGCAYIVMVHRQDAYRALQKLSRGNYKVNQKSIKIAWALNKGIKADYKQYWDVELGVTYIPWDKVKPEELESFCEGGMLDSDTLNPDWKGIPKKPENEVAQNGGAETSHTEPVSPIPKPLPVPVPPIPVPAPITVPPPQVPPHQPGPPVVGALQPPAFTPPLGIPPPGFGPGVPPPPPPPPFLRPGFNPMHLPPGFLPPGPPPPITPPVSIPPPHTPPISIPNSTIAGINEDTTKDLSIGNPIPTVVSGARGNAESGDSVKMYGSAVPPAAPTNLPTPPVTQPVSLLGTQGVAPGPVIGLQAPSTGLLGARPGLIPLQRPPGMPPPHLQRFPLMPPRPMPPHMMHRGPPPGPGGFAMPPPHGMKGPFPPHGPFVRPGGMPGLGGPGPGPGGPEDRDGRQQPPQQPQQQPQPQAPQQPQQQQQQQPPPSQQPPPTQQQPQQFRNDNRQQFNSGRDQERFGRRSFGNRVENDRERYGNRNDDRDNSNRDRREWGRRSPDRDRHRDLEERNRRSSGHRDRERDSRDRESRREKEEARGKEKPEVTDRAGGNKTVEPPISQVGNVDTASELEKGVSEAAVLKPSEELPAEATSSVEPEKDSGSAAEAPR
B6: Serine/arginine-rich splicing factor 2 (protein, UniProt Q01130 1-221)
chain: MSYGRPPPDVEGMTSLKVDNLTYRTSPDTLRRVFEKYGRVGDVYIPRDRYTKESRGFAFVRFHDKRDAEDAMDAMDGAVLDGRELRVQMARYGRPPDSHHSRRGPPPRRYGGGGYGRRSRSPRRRRRSRSRSRSRSRSRSRSRYSRSKSRSRTRSRSRSTSKSRSARRSKSKSSSVSRSRSRSRSRSRSRSPPPVSKRESKSRSRSKSPPKSPEEEGAVSS
B7: Serine/arginine repetitive matrix protein 1 (protein, UniProt Q8IYB3 1-904)
chain: MDAGFFRGTSAEQDNRFSNKQKKLLKQLKFAECLEKKVDMSKVNLEVIKPWITKRVTEILGFEDDVVIEFIFNQLEVKNPDSKMMQINLTGFLNGKNAREFMGELWPLLLSAQENIAGIPSAFLELKKEEIKQRQIEQEKLASMKKQDEDKDKRDKEEKESSREKRERSRSPRRRKSRSPSPRRRSSPVRRERKRSHSRSPRHRTKSRSPSPAPEKKEKTPELPEPSVKVKEPSVQEATSTSDILKVPKPEPIPEPKEPSPEKNSKKEKEKEKTRPRSRSRSKSRSRTRSRSPSHTRPRRRHRSRSRSYSPRRRPSPRRRPSPRRRTPPRRMPPPPRHRRSRSPVRRRRRSSASLSGSSSSSSSSRSRSPPKKPPKRTSSPPRKTRRLSPSASPPRRRHRPSPPATPPPKTRHSPTPQQSNRTRKSRVSVSPGRTSGKVTKHKGTEKRESPSPAPKPRKVELSESEEDKGGKMAAADSVQQRRQYRRQNQQSSSDSGSSSSSEDERPKRSHVKNGEVGRRRRHSPSRSASPSPRKRQKETSPRGRRRRSPSPPPTRRRRSPSPAPPPRRRRTPTPPPRRRTPSPPPRRRSPSPRRYSPPIQRRYSPSPPPKRRTASPPPPPKRRASPSPPPKRRVSHSPPPKQRSSPVTKRRSPSLSSKHRKGSSPSRSTREARSPQPNKRHSPSPRPRAPQTSSSPPPVRRGASSSPQRRQSPSPSTRPIRRVSRTPEPKKIKKAASPSPQSVRRVSSSRSVSGSPEPAAKKPPAPPSPVQSQSPSTNWSPAVPVKKAKSPTPSPSPPRNSDQEGGGKKKKKKKDKKHKKDKKHKKHKKHKKEKAVAAAAAAAVTPAAIAAATTTLAQEEPVAAPEPKKETESEAEDNLDDLEKHLREKALRSMRKAQVSPQS
B8: Cleavage and polyadenylation specificity factor subunit 7 (protein, UniProt Q8N684 1-471)
chain: MSEGVDLIDIYADEEFNQDPEFNNTDQIDLYDDVLTATSQPSDDRSSSTEPPPPVRQEPSPKPNNKTPAILYTYSGLRNRRAAVYVGSFSWWTTDQQLIQVIRSIGVYDVVELKFAENRANGQSKGYAEVVVASENSVHKLLELLPGKVLNGEKVDVRPATRQNLSQFEAQARKRECVRVPRGGIPPRAHSRDSSDSADGRATPSENLVPSSARVDKPPSVLPYFNRPPSALPLMGLPPPPIPPPPPLSSSFGVPPPPPGIHYQHLMPPPPRLPPHLAVPPPGAIPPALHLNPAFFPPPNATVGPPPDTYMKASAPYNHHGSRDSGPPPSTVSEAEFEDIMKRNRAISSSAISKAVSGASAGDYSDAIETLLTAIAVIKQSRVANDERCRVLISSLKDCLHGIEAKSYSVGASGSSSRKRHRSRERSPSRSRESSRRHRDLLHNEDRHDDYFQERNREHERHRDRERDRHH
B9: Serrate RNA effector molecule homolog (protein, UniProt Q9BXP5 1-876)
chain: MGDSDDEYDRRRRDKFRRERSDYDRSRERDERRRGDDWNDREWDRGRERRSRGEYRDYDRNRRERFSPPRHELSPPQKRMRRDWDEHSSDPYHSGYEMPYAGGGGGPTYGPPQPWGHPDVHIMQHHVLPIQARLGSIAEIDLGVPPPVMKTFKEFLLSLDDSVDETEAVKRYNDYKLDFRRQQMQDFFLAHKDEEWFRSKYHPDEVGKRRQEARGALQNRLRVFLSLMETGWFDNLLLDIDKADAIVKMLDAAVIKMEGGTENDLRILEQEEEEEQAGKPGEPSKKEEGRAGAGLGDGERKTNDKDEKKEDGKQAENDSSNDDKTKKSEGDGDKEEKKEDSEKEAKKSSKKRNRKHSGDDSFDEGSVSESESESESGQAEEEKEEAEEALKEKEKPKEEEWEKPKDAAGLECKPRPLHKTCSLFMRNIAPNISRAEIISLCKRYPGFMRVALSEPQPERRFFRRGWVTFDRSVNIKEICWNLQNIRLRECELSPGVNRDLTRRVRNINGITQHKQIVRNDIKLAAKLIHTLDDRTQLWASEPGTPPLPTSLPSQNPILKNITDYLIEEVSAEEEELLGSSGGAPPEEPPKEGNPAEINVERDEKLIKVLDKLLLYLRIVHSLDYYNTCEYPNEDEMPNRCGIIHVRGPMPPNRISHGEVLEWQKTFEEKLTPLLSVRESLSEEEAQKMGRKDPEQEVEKFVTSNTQELGKDKWLCPLSGKKFKGPEFVRKHIFNKHAEKIEEVKKEVAFFNNFLTDAKRPALPEIKPAQPPGPAQILPPGLTPGLPYPHQTPQGLMPYGQPRPPILGYGAGAVRPAVPTGGPPYPHAPYGAGRGNYDAFRGQGGYPGKPRNRMVRGDPRAIVEYRDLDAPDDVDFF

The experiment deals with T1, E3 ubiquitin-protein ligase Midline-1. Description: affinity purification with mass spectrometry; MID1-FLAG expressed in HEK293T, lysate in TKM buffer (20 mM Tris pH 7.4, 100 mM KCl, 5 mM MgCl2, 0.5% NP40, 1 mM DTT), anti-FLAG M1 agarose overnight at 4 °C, 6 washes; untransfected cells as control; Q-Exactive, MaxQuant, 1% FDR.
Consider B1, for which the binding entry is “binds”. As to B2, the binding entry is listed as “binds”. For B3, the binding entry is “binds”. To B4 belongs “binds”; to B5, “binds”. The result for B6 reads “binds”; that for B7, “binds”.

Take B8: the binding result is recorded as “binds”. With B9, the binding result is “binds”.

The values are drawn from paper PMC5841321.
